Record: PubChem BioAssay AID1259266 (Sanger Institute, 2017)
Purpose: 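Find knock-downs that kill LS123 cells or act with anchor drugs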 (primary screen). System: LS123 human colorectal cancer cells. Reagent: siRNA pool against human genes. Treatment: anchor drugs BYL719 (1 µM), cetuximab (5 µg/ml) or trametinib (10 nM), each chosen to barely slow growth alone; DMSO vehicle as the drug-free arm. Measurement: 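Viability relative to non-targeting control pools, replicate mean, with a robust z-score for knock-down alone and synergy scores for each anchor drug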. Reading the numbers: robust z-score, knock-down alone: higher = more cells surviving after knock-down; viability, knock-down alone: higher = more viable cells; synergy score with trametinib and synergy score with BYL719 and synergy score with cetuximab: higher = stronger synthetic lethality with drug. Hit rule: 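Essential when the robust z-score of the knock-down alone is below -3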. Calls: active = essential (knock-down alone cuts viability); inactive = no change.
This is a random part of 794 reagents. Of all reagents, 16 (2%) got an active call. 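Calls reflect knock-down alone, not drug synergy; viability seems capped at 1 and z-scores at 0.585.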 A number with no mark means an inactive call. Not stated in the record: the amount of reagent, the time to read-out.

target gene	robust z-score, knock-down alone	viability, knock-down alone (fraction of control)	synergy score with trametinib	synergy score with BYL719	synergy score with cetuximab
ELP1	0.585	1	-0.118	-0.159	-0.0122
VRK2	-1.13	0.898	-0.118	-0.14	-0.0422
FRK	-0.235	0.951	-0.0186	-0.0737	0.0546
PDK3	-0.675	0.925	0.000832	-0.0419	0.0406
MAST2	0.06	0.969	-0.0669	0.0926	-0.0042
NEK10	0.585	1	-0.0666	-0.159	-0.0122
TEK	0.585	1	-0.0837	-0.146	-0.0122
STK24	0.585	1	-0.0856	-0.0542	0.00443
FOXP1	-1.65	0.867	-0.0109	-0.111	-0.0311
TSSK6	-2.45	0.82	0.0314	-0.0198	-0.0105
MAP2K2	0.585	1	-0.144	-0.077	-0.0122
ACVR1B	0.585	1	-0.0997	-0.103	-0.0122
BCOR	0.585	1	-0.151	-0.0398	-0.0122

Just “synergy score with BYL719”, for 2 of the entries above:
FRK = -0.0737
PDK3 = -0.0419

The list goes on:
target gene	robust z-score, knock-down alone	viability, knock-down alone (fraction of control)	synergy score with trametinib	synergy score with BYL719	synergy score with cetuximab
MKNK2	-0.335	0.945	-0.145	-0.0518	-0.0662
CDKN1B	0.585	1	-0.101	-0.106	-0.0122
TWF1	0.585	1	-0.0464	-0.159	-0.0122
AKT2	0.15	0.974	-0.0147	-0.135	0.0111
LATS1	0.585	1	-0.105	-0.0453	-0.0112
TTBK2	0.0335	0.967	0.00112	0.000611	0.0989
GTF2H1	-1.1	0.9	0.0182	-0.0245	0.0419
TAF1	0.585	1	-0.131	-0.0935	-0.0122
SCYL3	-1.41	0.882	-0.083	-0.23	-0.0571
SRP72	0.585	1	-0.0929	-0.133	-0.0122
CAMK1D	0.254	0.98	-0.0355	-0.0705	0.0622
PLK3	0.585	1	-0.0681	-0.0136	0.0266
MAP3K12	0.585	1	-0.0697	-0.086	-0.0122
PIK3R3	0.585	1	-0.186	-0.0853	-0.0122
MTOR	0.585	1	-0.00877	-0.06	0.0423
MAP3K19	-1.96	0.849	-0.0718	-0.044	-0.0164
DSTYK	0.585	1	-0.152	-0.159	-0.0122
ROCK2	0.585	1	-0.089	-0.127	-0.0122
ADPGK	-0.642	0.927	0.0496	-0.121	0.0376
CDK9	0.585	1	-0.0875	-0.0774	-0.0122
AXIN2	0.585	1	-0.0766	-0.00684	-0.00951
